Test: in vitro
Conditions: human, Caco-2

For `CC(C)NCC(O)COc1ccc(CC(N)=O)cc1` (stereo not shown) [atenolol], the Papp was 0.542 ×10⁻⁶ cm/s.

Source: publication PMC12044326 (Clinical Pharmacology in Drug Development, 2025)
